Assay results: PubChem BioAssay (NCATS)
“And” between values parts separate entries of the source, which are not always exact repeats. Equal values may be shown once. This is one part of the list. Further columns of the screen follow, without active or inactive calls. For some of these results: Most of these compounds were active or inconclusive in the main read-out, so they are no random draw. For some of these results: Potencies come from curve fits of mixed quality, noted in brackets.

How the values were obtained:
[1] = NCATS anti-infectives library activity on the primary C. elegans qHTS viability assay (AID 1745855); settings: C. elegans worm area imaging
How it was run: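 Titration-based screen in worms: eggs hatched overnight in M9, L1 larvae fed TOP10 capsules in S medium with compound, incubated 21 °C for 7 days; fluorescent objects gated by size and intensity at days 0, 3 and 7.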

[2] = qHTS for identification of novel therapeutic agents for treatment of microphthalmiaassociated transcription factor (MiT) renal cell carcinoma (RCC) (AID 1963991); settings: CellTiter-Glo, 48 h; for z-score: stronger effect = lower value
How it was run: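 Three TFE3-fusion RCC cell lines (UOK109, UOK124, UOK145), 500 cells/well, were exposed to the 1912-compound MIPE 4.0 library for 48 hours at 37 C. Viability was read by CellTiter-Glo luminescence, normalised to DMSO (100%) and empty wells (0%), with 11-concentration curve fits.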

[3] = qHTS drug screen for cell cycle checkpoint inhibitors in PARPi-resistant BRCA-mutant ovarian cancer cell lines. (AID 1963452); settings: PEO1/OlaR viability, CellTiter-Glo luminescence, 96 h
How it was run: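 PEO1, PEO4 and PEO1/OlaR ovarian cancer cells, 600 per well, exposed 96 h at 37C to a dilution series. Viability read by CellTiter-Glo luminescence, normalized to DMSO and empty wells; activity summarized as Z-AUC.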

[4] = qHTS assay for small molecule antagonists of peroxisome proliferator-activated receptor delta signaling (AID 588535); settings: HEK293T PPARd-UAS-bla, beta-lactamase FRET ratio, 18 h; 460 nm channel;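 also: cells co-treated with a PPAR-delta agonist as stimulator during compound exposure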
How it was run: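 Antagonist-mode qHTS using GeneBLAzer PPAR-delta-UAS-bla HEK293T cells; compound exposure 18 hrs at 37 C over a titration. Ratiometric CCF4 fluorescence at 460/530 nm; concentration-response points fitted to the Hill equation.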

[5] = qHTS assay for small molecule antagonists of peroxisome proliferator-activated receptor gamma signaling (AID 588537); settings: HEK293 PPARg-UAS-bla, beta-lactamase ratio, antagonist mode; measured here: W460 blue channel
How it was run: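 Cell-based beta-lactamase assay; GW9662 served as the antagonist control. Stimulation used rosiglitazone, final 50 nM, 16 h, 37 C.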

[6] = qHTS assay for small molecule agonists of retinoid X receptor alpha signaling (AID 588544); settings: HEK293T RXRa-UAS-bla, beta-lactamase reporter, 18 h; 530 nm emission
[7] = qHTS assay for small molecule antagonists of retinoid X receptor alpha signaling (AID 588546); settings: HEK293T RXRa-UAS-bla, beta-lactamase ratio, antagonist mode; measured here: W530 green channel, cytotoxicity proxy;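 also: cells stimulated with 9-cis-retinoic acid as agonist; % is scaled to controls: 0 for no effect and ±100 for the full control effect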
How it was run: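 Beta-lactamase reporter inhibition, read as CCF4 fluorescence ratio (ex 405, em 460/530 nm) after 2 h at RT. HEK293T UAS-bla cells, 2500/well, were stimulated with 9-cis-RA at 500 or 100 nM final alongside test compound for 18 h at 37 C.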

[8] = S16 Schwann cell PMP22 intronic element beta-lactamase assay (AID 624044); settings: S16 rat Schwann cells, PMP22 element beta-lactamase FRET, 24 h; measured here: 460 nm blue channel
How it was run: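 Beta-lactamase reporter under a PMP22 intronic regulatory element in stable S16 rat Schwann cells; 24 h compound exposure. 460 nm blue signal normalized between DMSO (0%) and potassium clavulanate, with 535 nm FRET tracking viability; curves classed by r2 and response.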

[9] = day 7, measured here: worm number
[10] = TFE3-RCC UOK109 viability, measured here: UOK109 Z-AUC
[11] = TFE3-RCC viability, measured here: UOK124 Z-AUC
[12] = TFE3-RCC viability, measured here: UOK124 cell viability
[13] = TFE3-RCC viability, measured here: UOK145 Z-AUC
[14] = measured here: PEO1 parental viability
[15] = TFE3-RCC viability, measured here: UOK145 cell viability

## O=C(Oc1ccc([N+](=O)[O-])cc1)N1CCC(C(O)(c2ccc3c(c2)OCO3)c2ccc3c(c2)OCO3)CC1
[1]; [9]
  AC50: 18.3 µM [falling, partial curve]
[1]; day 7, measured here: worm area, day 3
  AC50: 25.8 µM [falling, single point]
[1]; day 7, measured here: worm number, day 3
  AC50: 25.8 µM [falling, single point]
[2]; [10]
  z-score: -0.402
[2]; [11]
  z-score: 0.114
[2]; [12]
  AC50: 33.2 µM [falling, partial curve, poor fit]
[2]; [13]
  z-score: 0.149

## C=C1C[C@@H]2[C@H](CC[C@]3(C)C(=O)CC[C@@H]23)[C@@]2(C)C=CC(=O)C=C12
[3]; measured here: PEO4 viability
  AC50: 24.5 µM [falling, single point]

## COc1ccc(N(C(=O)Oc2c(C)cccc2C)c2ccnc(Nc3ccc(N4CCN(C)CC4)cc3)n2)c(OC)c1
[3]; [14]
  AC50: 3.47 µM [falling, single point]

## CCNC(=O)C[C@@H]1N=C(c2ccc(Cl)cc2)c2cc(OC)ccc2-n2c(C)nnc21
[1]; [9]
  AC50: 2.3 µM [falling, full curve]
[3]; [14]
  AC50: 6.92 µM [falling, partial curve]
[3]; measured here: PEO4 viability
  AC50: 1.38 µM [falling, full curve]
[2]; [10]
  z-score: -1.19
[2]; [11]
  z-score: -0.129
[2]; [12]
  AC50: 0.743 µM [falling, full curve]
[2]; [13]
  z-score: -0.299
[2]; [15]
  AC50: 4.18 µM [falling, partial curve]

## O=C(O)C(=O)c1cn(Cc2ccccc2)c2ccc(-c3ccc(OC(F)(F)F)cc3)cc12
[3]; [14]
  AC50: 27.5 µM [falling, single point]

## CCN(CC)C(=O)c1ccc(C2=CC3(CCNCC3)Oc3cccc(O)c32)cc1
[3]; measured here: PEO4 viability
  AC50: 0.0155 µM [falling, full curve]
[2]; [10]
  z-score: 1.05
[2]; [11]
  z-score: 0.688
[2]; [13]
  z-score: 1.17

## Cn1cc(C2=C(c3cn(C4CCN(Cc5ccccn5)CC4)c4ccccc34)C(=O)NC2=O)c2ccccc21
[3]; [14]
  AC50: 30.9 µM [falling, single point]
[3]; measured here: PEO4 viability
  AC50: 6.16 µM [falling, partial curve]
[2]; [10]
  z-score: 0.376
[2]; [11]
  z-score: -0.402
[2]; [12]
  AC50: 5.26 µM [falling, full curve]
[2]; [13]
  z-score: 0.385
[2]; [15]
  AC50: 11.8 µM [falling, full curve]

## C[C@]12CC[C@H]3[C@@H](CCC4=CC(=O)CC[C@@]43C)[C@H]1CC[C@H]2OC(=O)CCC1CCCC1
[2]; [10]
  z-score: -0.189
[2]; [11]
  z-score: 0.833
[2]; [13]
  z-score: 0.303

## Cc1ccccc1-n1c(Cn2ncc3c(N)ncnc32)nc2cccc(C)c2c1=O
[2]; [12]
  AC50: 0.0526 µM [falling, full curve]
[2]; [15]
  AC50: 0.296 µM [falling, full curve]

## N[C@@H](Cc1ccc(N(CCCl)CCCl)cc1)C(=O)O
[4]
  max response: 107% and -19.3%
[5]
  AC50: 50.1 µM [rising, single point]
[6]
  max response: 79.1% and 38.6%
[7]
  max response: 27.2% and 35.7%
[8]
  AC50: 1.99 µM [falling, partial curve, poor fit]
[3]; [14]
  AC50: 0.692 µM [falling, full curve]
[3]; measured here: PEO4 viability
  AC50: 0.871 µM [falling, full curve, poor fit]
[2]; [10]
  z-score: 1.07
[2]; [11]
  z-score: 1.98
[2]; [12]
  AC50: 18.7 µM [falling, partial curve]
[2]; [13]
  z-score: 0.854
[2]; [15]
  AC50: 18.7 µM [falling, partial curve]

## COc1cc([C@@H]2c3cc4c(cc3[C@@H](O)C3COC(=O)C32)OCO4)cc(OC)c1O (stereo not given in full)
[2]; [12]
  AC50: 0.0187 µM [falling, full curve]
[2]; [15]
  AC50: 0.0235 µM [falling, full curve]

## O=C(N[C@@H](COc1ccc2[nH]c(=O)[nH]c2c1)c1ccccc1)c1cccn(Cc2ccc(F)c(F)c2)c1=O
[3]; [14]
  AC50: 12.3 µM [falling, partial curve, poor fit]
[3]; measured here: PEO4 viability
  AC50: 12.3 µM [falling, partial curve]
[2]; [10]
  z-score: 0.431
[2]; [11]
  z-score: -1.9
[2]; [12]
  AC50: 33.2 µM [falling, single point]
[2]; [13]
  z-score: -0.76
[2]; [15]
  AC50: 26.4 µM [falling, single point]
